# Data: the supplement of paper PMC8728848
# This is one part of the list.
# B1: SUN4P (Saccharomyces cerevisiae), P53616 (protein)
# chain: MGSSHHHHHHSSGLVPRGSHNGSIYGDLADFSGPYEKFEDGTIPCGQFPSGQGVIPISWLDEGGWSGVENTDTSTGGSCKEGSYCSYACQPGMSKTQWPSDQPSDGRSIGGLLCKDGYLYRSNTDTDYLCEWGVDAAYVVSELSNDVAICLTDYPGTENMVIPTYVQAGDSLPLTVVDQDTYYTWQGLKTSAQYYVNNAGISVEDACVWGSSSSGVGNWAPLNFGAGSSDGVAYLSLIPNPNNGNALNFNVKIVAADDSSTVNGECIYENGSFSGGSDGCTVSVTAGKAKFVLYN
# Experiments:
# Test in all cases: glycan array binding signal (z-score within array); higher = stronger binding
# Conditions in all cases: glycan notation: IUPAC condensed, linker removed; mutation: R276L
# [1] = target: Gal(a1-3)GalNAc
# Method in brief: (§1)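 Glycan array data were curated from 3228 arrays in the Consortium for Functional Glycomics database and kept only where the protein sequence was available. Glycan names were converted to IUPAC-condensed notation, and columns mapping to the same glycan were averaged. The binding signal is a within-array Z-score, averaged across arrays of the same protein sequence at different concentrations or buffers and across linkers. Negative Z-scores can be read as non-binding.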
# [2] = target: Gal(a1-3)[Gal(a1-4)]Gal(b1-4)GlcNAc
# Method in brief: as §1
# [3] = target: Gal(a1-4)Gal(b1-3)GlcNAc(b1-2)Man(a1-3)[Gal(a1-4)Gal(b1-3)GlcNAc(b1-2)Man(a1-6)]Man(b1-4)GlcNAc(b1-4)GlcNAc
# Method in brief: as §1
# [4] = target: Gal(a1-4)Gal(b1-4)Glc
# Method in brief: as §1
# [5] = target: Gal(a1-4)Gal(b1-4)GlcNAc
# Method in brief: as §1
# [6] = target: Gal(a1-4)Gal(b1-4)GlcNAc(b1-2)Man(a1-3)[Gal(a1-4)Gal(b1-4)GlcNAc(b1-2)Man(a1-6)]Man(b1-4)GlcNAc(b1-4)GlcNAc
# Method in brief: as §1
# [7] = target: Gal(a1-4)Gal(b1-4)GlcNAc(b1-3)Gal(b1-4)Glc
# Method in brief: as §1
# [8] = target: Gal(a1-4)GlcNAc
# Method in brief: as §1
# [9] = target: Gal(a1-6)Glc
# Method in brief: as §1
# [10] = target: Gal(b1-2)Gal
# Method in brief: as §1
# [11] = target: Gal(b1-3)Gal
# Method in brief: as §1
# [12] = target: Gal(b1-3)Gal(b1-4)GlcNAc
# Method in brief: as §1
# [13] = target: Gal(b1-3)GalNAc
# Method in brief: as §1
# [14] = target: Gal(b1-3)GalNAc(a1-3)[Fuc(a1-2)]Gal(b1-4)Glc
# Method in brief: as §1
# [15] = target: Gal(b1-3)GalNAc(a1-3)[Fuc(a1-2)]Gal(b1-4)GlcNAc
# Method in brief: as §1
# [16] = target: Gal(b1-3)GalNAc(b1-3)Gal
# Method in brief: as §1
# [17] = target: Gal(b1-3)GalNAc(b1-3)Gal(a1-4)Gal(b1-4)Glc
# Method in brief: as §1
# [18] = target: Gal(b1-3)GalNAc(b1-4)Gal(b1-4)Glc
# Method in brief: as §1
# [19] = target: Gal(b1-3)GalNAc(b1-4)[Neu5Ac(a2-3)]Gal(b1-4)Glc
# Method in brief: as §1
# [20] = target: Gal(b1-3)GlcNAc
# Method in brief: as §1
# [21] = target: Gal(b1-3)GlcNAc(a1-3)Gal(b1-4)GlcNAc
# Method in brief: as §1
# [22] = target: Gal(b1-3)GlcNAc(a1-6)Gal(b1-4)GlcNAc
# Method in brief: as §1
# [23] = target: Gal(b1-3)GlcNAc(b1-2)Man
# Method in brief: as §1
# [24] = target: Gal(b1-3)GlcNAc(b1-2)Man(a1-3)[Gal(b1-3)GlcNAc(b1-2)Man(a1-6)]Man(b1-4)GlcNAc(b1-4)GlcNAc
# Method in brief: as §1
# [25] = target: Gal(b1-3)GlcNAc(b1-2)Man(a1-3)[Gal(b1-3)GlcNAc(b1-2)Man(a1-6)]Man(b1-4)GlcNAc(b1-4)[Fuc(a1-6)]GlcNAc
# Method in brief: as §1
# [26] = target: Gal(b1-3)GlcNAc(b1-2)Man(a1-3)[GlcNAc(b1-4)][Gal(b1-3)GlcNAc(b1-2)Man(a1-6)]Man(b1-4)GlcNAc(b1-4)GlcNAc
# Method in brief: as §1
# [27] = target: Gal(b1-3)GlcNAc(b1-2)[Gal(b1-3)GlcNAc(b1-6)]Man(a1-6)[Gal(b1-3)GlcNAc(b1-2)Man(a1-3)]Man(b1-4)GlcNAc(b1-4)GlcNAc
# Method in brief: as §1
# [28] = target: Gal(b1-3)GlcNAc(b1-3)Gal(b1-3)GlcNAc
# Method in brief: as §1
# [29] = target: Gal(b1-3)GlcNAc(b1-3)Gal(b1-4)Glc
# Method in brief: as §1
# [30] = target: Gal(b1-3)GlcNAc(b1-3)Gal(b1-4)GlcNAc
# Method in brief: as §1
# [31] = target: Gal(b1-3)GlcNAc(b1-3)Gal(b1-4)GlcNAc(b1-2)Man(a1-3)[Gal(b1-3)GlcNAc(b1-3)Gal(b1-4)GlcNAc(b1-2)Man(a1-6)]Man(b1-4)GlcNAc(b1-4)GlcNAc
# Method in brief: as §1
# [32] = target: Gal(b1-3)GlcNAc(b1-3)Gal(b1-4)GlcNAc(b1-2)[Gal(b1-3)GlcNAc(b1-3)Gal(b1-4)GlcNAc(b1-6)]Man(a1-6)[Gal(b1-3)GlcNAc(b1-3)Gal(b1-4)GlcNAc(b1-2)Man(a1-3)]Man(b1-4)GlcNAc(b1-4)[Fuc(a1-6)]GlcNAc
# Method in brief: as §1
# [33] = target: Gal(b1-3)GlcNAc(b1-3)Gal(b1-4)GlcNAc(b1-3)Gal(b1-4)GlcNAc(b1-2)[Gal(b1-3)GlcNAc(b1-3)Gal(b1-4)GlcNAc(b1-3)Gal(b1-4)GlcNAc(b1-6)]Man(a1-6)[Gal(b1-3)GlcNAc(b1-3)Gal(b1-4)GlcNAc(b1-3)Gal(b1-4)GlcNAc(b1-2)Man(a1-3)]Man(b1-4)GlcNAc(b1-4)[Fuc(a1-6)]GlcNAc
# Method in brief: as §1
# [34] = target: Gal(b1-3)GlcNAc(b1-3)Gal(b1-4)GlcNAc(b1-6)[Gal(b1-3)GlcNAc(b1-3)]Gal(b1-4)Glc
# Method in brief: as §1
# [35] = target: Gal(b1-3)GlcNAc(b1-3)Gal(b1-4)[Fuc(a1-3)]GlcNAc
# Method in brief: as §1
# [36] = target: Gal(b1-3)GlcNAc(b1-3)Gal(b1-4)[Fuc(a1-3)]GlcNAc(b1-6)[Gal(b1-3)GlcNAc(b1-3)]Gal(b1-4)Glc
# Method in brief: as §1
# [37] = target: Gal(b1-3)GlcNAc(b1-3)GalNAc
# Method in brief: as §1
# [38] = target: Gal(b1-3)GlcNAc(b1-6)Gal(b1-4)GlcNAc
# Method in brief: as §1
binder,measurement,setting,value
B1,glycan array binding signal (z-score),[1],0.528
same,glycan array binding signal (z-score),[2],-0.711
same,glycan array binding signal (z-score),[3],0.183
same,glycan array binding signal (z-score),[4],-0.891
same,glycan array binding signal (z-score),[5],-0.161
same,glycan array binding signal (z-score),[6],1.37
same,glycan array binding signal (z-score),[7],-0.942
same,glycan array binding signal (z-score),[8],-0.2
same,glycan array binding signal (z-score),[9],0.903
same,glycan array binding signal (z-score),[10],0.046
same,glycan array binding signal (z-score),[11],1.8
same,glycan array binding signal (z-score),[12],0.813
same,glycan array binding signal (z-score),[13],2.6
same,glycan array binding signal (z-score),[14],0.654
same,glycan array binding signal (z-score),[15],0.139
same,glycan array binding signal (z-score),[16],7.07
same,glycan array binding signal (z-score),[17],1.21
same,glycan array binding signal (z-score),[18],11.2
same,glycan array binding signal (z-score),[19],0.232
same,glycan array binding signal (z-score),[20],-0.318
same,glycan array binding signal (z-score),[21],0.277
same,glycan array binding signal (z-score),[22],-0.043
same,glycan array binding signal (z-score),[23],-0.342
same,glycan array binding signal (z-score),[24],-0.366
same,glycan array binding signal (z-score),[25],0.115
same,glycan array binding signal (z-score),[26],-0.233
same,glycan array binding signal (z-score),[27],0.279
same,glycan array binding signal (z-score),[28],-0.507
same,glycan array binding signal (z-score),[29],-0.852
same,glycan array binding signal (z-score),[30],-0.963
same,glycan array binding signal (z-score),[31],1.37
same,glycan array binding signal (z-score),[32],2.11
same,glycan array binding signal (z-score),[33],-0.881
same,glycan array binding signal (z-score),[34],0.725
same,glycan array binding signal (z-score),[35],-0.376
same,glycan array binding signal (z-score),[36],-0.767
same,glycan array binding signal (z-score),[37],-1.33
same,glycan array binding signal (z-score),[38],1.77

# An excerpt of these results, with tabs.
binder	measurement	setting	value
B1	glycan array binding signal (z-score)	[4]	-0.891
same	glycan array binding signal (z-score)	[33]	-0.881
